From article PMC9090297 come the findings set out here.

Chains of the proteins cited; added tags and fusions are not shown.
UniProt Q8K0V4: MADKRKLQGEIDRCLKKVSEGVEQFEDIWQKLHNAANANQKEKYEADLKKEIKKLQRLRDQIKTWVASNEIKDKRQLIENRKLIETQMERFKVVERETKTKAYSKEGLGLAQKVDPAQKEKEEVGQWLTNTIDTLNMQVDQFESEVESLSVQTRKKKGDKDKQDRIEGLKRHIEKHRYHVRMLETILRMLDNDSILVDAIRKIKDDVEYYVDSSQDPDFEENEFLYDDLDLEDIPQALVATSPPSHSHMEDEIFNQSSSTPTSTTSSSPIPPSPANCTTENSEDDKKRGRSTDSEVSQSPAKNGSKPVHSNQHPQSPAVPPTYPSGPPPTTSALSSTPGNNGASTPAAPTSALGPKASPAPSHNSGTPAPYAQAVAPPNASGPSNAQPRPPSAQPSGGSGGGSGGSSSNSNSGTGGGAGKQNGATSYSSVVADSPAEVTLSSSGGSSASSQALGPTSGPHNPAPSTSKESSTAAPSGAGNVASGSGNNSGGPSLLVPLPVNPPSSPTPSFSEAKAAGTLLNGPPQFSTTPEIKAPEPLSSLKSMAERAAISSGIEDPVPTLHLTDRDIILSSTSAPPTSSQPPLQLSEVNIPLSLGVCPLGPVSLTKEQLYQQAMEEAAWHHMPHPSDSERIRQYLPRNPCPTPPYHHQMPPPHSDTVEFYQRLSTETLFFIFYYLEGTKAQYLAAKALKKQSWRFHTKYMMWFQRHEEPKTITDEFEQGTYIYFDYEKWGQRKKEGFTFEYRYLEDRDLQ
UniProt Q6ZQ08: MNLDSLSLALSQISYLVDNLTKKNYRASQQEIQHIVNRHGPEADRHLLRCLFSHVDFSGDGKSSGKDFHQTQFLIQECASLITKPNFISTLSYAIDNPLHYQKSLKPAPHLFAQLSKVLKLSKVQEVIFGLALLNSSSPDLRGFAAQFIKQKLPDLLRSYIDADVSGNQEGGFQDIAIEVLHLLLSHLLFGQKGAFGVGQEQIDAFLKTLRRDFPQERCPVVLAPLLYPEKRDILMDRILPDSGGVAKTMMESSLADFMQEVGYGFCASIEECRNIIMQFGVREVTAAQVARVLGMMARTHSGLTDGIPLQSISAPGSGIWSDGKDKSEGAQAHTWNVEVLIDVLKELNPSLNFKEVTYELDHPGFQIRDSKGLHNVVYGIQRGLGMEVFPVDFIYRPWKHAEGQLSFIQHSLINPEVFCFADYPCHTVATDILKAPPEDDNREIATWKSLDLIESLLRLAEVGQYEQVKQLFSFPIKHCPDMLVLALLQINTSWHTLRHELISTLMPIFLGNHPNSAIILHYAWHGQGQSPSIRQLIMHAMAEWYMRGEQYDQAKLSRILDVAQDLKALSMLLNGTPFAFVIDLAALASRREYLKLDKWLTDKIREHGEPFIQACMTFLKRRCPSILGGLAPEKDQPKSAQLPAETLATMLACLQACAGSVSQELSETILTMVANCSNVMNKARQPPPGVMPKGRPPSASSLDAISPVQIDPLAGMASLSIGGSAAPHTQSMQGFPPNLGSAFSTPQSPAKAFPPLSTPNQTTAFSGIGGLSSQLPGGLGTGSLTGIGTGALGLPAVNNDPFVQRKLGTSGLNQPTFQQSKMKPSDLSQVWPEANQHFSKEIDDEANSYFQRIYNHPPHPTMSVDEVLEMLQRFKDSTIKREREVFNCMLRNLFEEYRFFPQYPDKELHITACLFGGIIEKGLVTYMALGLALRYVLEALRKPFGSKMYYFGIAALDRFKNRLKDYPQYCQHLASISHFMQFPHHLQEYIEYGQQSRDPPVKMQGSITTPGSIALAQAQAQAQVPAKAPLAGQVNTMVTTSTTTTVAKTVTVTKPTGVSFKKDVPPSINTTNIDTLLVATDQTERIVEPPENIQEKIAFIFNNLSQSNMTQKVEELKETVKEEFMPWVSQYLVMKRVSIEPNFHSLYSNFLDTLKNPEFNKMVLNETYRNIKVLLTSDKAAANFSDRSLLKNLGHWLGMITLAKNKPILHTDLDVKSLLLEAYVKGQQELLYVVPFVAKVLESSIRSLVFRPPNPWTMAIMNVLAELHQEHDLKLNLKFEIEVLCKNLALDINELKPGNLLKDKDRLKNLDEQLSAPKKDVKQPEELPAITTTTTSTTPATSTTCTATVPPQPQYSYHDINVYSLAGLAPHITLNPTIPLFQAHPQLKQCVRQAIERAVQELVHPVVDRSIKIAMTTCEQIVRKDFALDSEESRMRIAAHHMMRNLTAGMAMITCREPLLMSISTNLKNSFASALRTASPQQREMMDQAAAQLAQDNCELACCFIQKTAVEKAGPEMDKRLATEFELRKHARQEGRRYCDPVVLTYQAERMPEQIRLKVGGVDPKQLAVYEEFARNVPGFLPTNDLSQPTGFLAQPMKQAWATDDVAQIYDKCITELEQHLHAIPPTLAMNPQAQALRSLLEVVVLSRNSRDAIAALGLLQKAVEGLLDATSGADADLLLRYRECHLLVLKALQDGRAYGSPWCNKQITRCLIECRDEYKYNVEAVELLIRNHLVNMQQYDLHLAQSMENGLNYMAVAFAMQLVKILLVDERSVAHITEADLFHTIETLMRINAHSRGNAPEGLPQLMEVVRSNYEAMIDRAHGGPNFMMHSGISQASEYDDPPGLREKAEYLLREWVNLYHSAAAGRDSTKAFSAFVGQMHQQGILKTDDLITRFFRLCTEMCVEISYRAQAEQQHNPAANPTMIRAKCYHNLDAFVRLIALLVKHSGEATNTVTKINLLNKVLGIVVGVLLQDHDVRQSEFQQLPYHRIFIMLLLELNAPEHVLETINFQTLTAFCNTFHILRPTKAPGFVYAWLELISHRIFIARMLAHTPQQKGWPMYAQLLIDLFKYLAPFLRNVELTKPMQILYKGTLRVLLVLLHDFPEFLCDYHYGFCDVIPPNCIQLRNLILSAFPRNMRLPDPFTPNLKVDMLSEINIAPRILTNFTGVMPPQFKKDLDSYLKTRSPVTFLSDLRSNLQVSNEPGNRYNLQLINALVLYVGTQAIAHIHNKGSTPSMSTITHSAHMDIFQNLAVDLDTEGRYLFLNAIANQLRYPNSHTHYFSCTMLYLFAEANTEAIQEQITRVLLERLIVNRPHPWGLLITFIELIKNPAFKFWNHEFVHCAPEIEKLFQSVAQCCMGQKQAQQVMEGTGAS
UniProt Q60809: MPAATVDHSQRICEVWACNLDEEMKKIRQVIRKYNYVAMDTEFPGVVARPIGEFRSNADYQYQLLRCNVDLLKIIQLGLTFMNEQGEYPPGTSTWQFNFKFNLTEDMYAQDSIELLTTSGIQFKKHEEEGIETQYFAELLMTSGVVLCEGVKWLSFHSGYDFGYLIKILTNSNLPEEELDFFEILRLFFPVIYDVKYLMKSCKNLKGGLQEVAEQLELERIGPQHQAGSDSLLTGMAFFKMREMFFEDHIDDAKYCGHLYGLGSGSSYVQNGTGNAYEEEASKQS
UniProt Q9D8X5: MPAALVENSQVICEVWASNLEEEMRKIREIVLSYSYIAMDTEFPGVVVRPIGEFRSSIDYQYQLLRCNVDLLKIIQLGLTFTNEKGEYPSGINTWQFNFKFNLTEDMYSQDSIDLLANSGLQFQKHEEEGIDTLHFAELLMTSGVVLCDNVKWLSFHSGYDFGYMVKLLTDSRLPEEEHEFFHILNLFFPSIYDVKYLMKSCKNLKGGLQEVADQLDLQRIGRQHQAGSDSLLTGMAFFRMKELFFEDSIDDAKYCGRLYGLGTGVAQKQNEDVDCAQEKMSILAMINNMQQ

The target of the test is CNOT3 (mouse (endogenous in liver)) (UniProt Q8K0V4). The experiment in a line: co-IP; anti-CNOT3 antibody on mouse liver lysate in TNE buffer (50 mM Tris-HCl pH 7.5, 150 mM NaCl, 1 mM EDTA, 1% NP40, 1 mM PMSF), Dynabeads Protein G, 4°C; control IgG in parallel; immunoblot of the precipitate. For orientation: Immunoblotting shows a protein as a band on a membrane.

No constants are given. Whether binding was seen depends on the method and setting. Binding seen in cells or lysates may run through a third protein. Some results given as binding are weak or reduced against the parent protein; the word gives no strength.

On to CNOT1 (from UniProt Q6ZQ08 1-2375), for which the binding entry is reported as “binds”.

As to CNOT6L (from UniProt Q8VEG6 1-555), the binding entry was “binds”.

With CNOT7 (from UniProt Q60809 1-285), the binding result is “binds”.

As to CNOT8 (from UniProt Q9D8X5 1-292), the binding result is reported as “binds”.
